For this test, the system named is L1210 leukemia ip in BDF1 mice, survival T/C. Briefly: NCI In Vivo Anticancer Drug Screen. Data for tumor model L1210 Leukemia (intraperitoneal) in B6D2F1 (BDF1) mice. The following applies: T/C endpoint: mean survival time, higher T/C = longer survival.
The mark [1] stands for this setting: dose: 400.0 mg/kg/injection, schedule: Q01DX001 (ip), vehicle: carboxymethylcellulose (CMC).
[2] abbreviates: dose: 100.0 mg/kg/injection, schedule: Q04DX002 (ip), vehicle: Klucel (hydroxypropylcellulose) (HPC).
[3] abbreviates: dose: 200.0 mg/kg/injection, schedule: Q04DX002 (ip), vehicle: Klucel (hydroxypropylcellulose) (HPC).
Setting [4] is: dose: 400.0 mg/kg/injection, schedule: Q04DX002 (ip), vehicle: Klucel (hydroxypropylcellulose) (HPC).
Setting [5] is: dose: 400.0 mg/kg/injection, schedule: Q01DX009 (ip), vehicle: saline with Tween-80.
Where [6] appears, read: dose: 400.0 mg/kg/injection, schedule: Q04DX003 (ip), vehicle: saline.
Where [7] appears, read: dose: 100.0 mg/kg/injection, schedule: Q01DX009 (ip), vehicle: saline with Tween-80.
The mark [8] stands for this setting: dose: 50.0 mg/kg/injection, schedule: Q01DX009 (ip), vehicle: Klucel (hydroxypropylcellulose) (HPC).

The list shows only some results of the screen, not a fair sample: it gathers tests that were run many times, whatever their T/C, doses with no T/C, and many T/C values between a quarter and a half above the control. Other doses and runs of a compound stand elsewhere. T/C: endpoint of the treated group in % of that of the vehicle group. Some entries give survivors of the animals treated and no T/C: the source holds a T/C of zero for them, seemingly a mark for toxic or unscored doses. Some doses without a T/C left all or most animals alive at the check, yet need not have been tolerated: survival well below the control is almost never listed, so the zero probably covers shortened survival too. Survivors were counted at the toxicity check, usually on the fifth day, unless a day is given; later deaths do not show. Schedule codes are those of the source, taken here to give the interval after Q, in days (D) or hours (H), and the number of doses after X. For survival time, this PubChem deposit counts one and a half times the control or more as active, and values a quarter to a half above the control carry no call in these data; other NCI protocols may use other cut-offs. Some T/C values are followed by the survivors on the day toxicity was checked, most often the fifth; where none is given, no animal had died by that day. Some entries hold several experiments; their values stand side by side, smallest first.

As for `CCc1ccc(/C=C/c2ccc(O)c3ncccc23)[n+](C)c1`, the T/C (dose: 8.0 mg/kg/injection, schedule: Q01DX009 (ip), vehicle: carboxymethylcellulose (CMC)) was 129 % of control; the T/C (dose: 8.0 mg/kg/injection, schedule: Q01DX015 (ip), vehicle: carboxymethylcellulose (CMC)) was 125 % of control; the T/C (dose: 16.0 mg/kg/injection, schedule: Q01DX009 (ip), vehicle: carboxymethylcellulose (CMC)) is 129 % of control; the T/C (dose: 16.0 mg/kg/injection, schedule: Q01DX015 (ip), vehicle: carboxymethylcellulose (CMC)) is 134 [5 of 6 alive] and 144 % of control. The survivor count by setting is: (dose: 32.0 mg/kg/injection, schedule: Q01DX009 (ip), vehicle: carboxymethylcellulose (CMC)) 2 of 6; (dose: 35.0 mg/kg/injection, schedule: Q01DX009 (ip), vehicle: saline with Tween-80) 0 of 6; (dose: 35.0 mg/kg/injection, schedule: Q04DX003 (ip), vehicle: saline) 3 of 6; (dose: 50.0 mg/kg/injection, schedule: Q01DX001 (ip), vehicle: saline) 0 of 6; (dose: 55.0 mg/kg/injection, schedule: Q01DX009 (ip), vehicle: saline with Tween-80) 0 of 6; (dose: 55.0 mg/kg/injection, schedule: Q04DX003 (ip), vehicle: saline) 1 of 6. Moreover, the survivor count was 1 of 10 (dose: 64.0 mg/kg/injection, schedule: Q01DX001 (ip), vehicle: other); 0 of 6 (dose: 64.0 mg/kg/injection, schedule: Q01DX009 (ip), vehicle: carboxymethylcellulose (CMC)); 0 of 6 (dose: 64.0 mg/kg/injection, schedule: Q01DX015 (ip), vehicle: carboxymethylcellulose (CMC)); 0 of 10 (dose: 64.0 mg/kg/injection, schedule: Q04DX003 (ip), vehicle: other); 1 of 10 (dose: 64.0 mg/kg/injection, schedule: Q08DX002 (ip), vehicle: other); 1 of 6 (dose: 80.0 mg/kg/injection, schedule: Q01DX001 (ip), vehicle: carboxymethylcellulose (CMC)). Moreover, the survivor count reads like this: (dose: 80.0 mg/kg/injection, schedule: Q01DX009 (ip), vehicle: saline with Tween-80) 0 of 6; (dose: 80.0 mg/kg/injection, schedule: Q04DX003 (ip), vehicle: saline) 1 of 6; (dose: 100.0 mg/kg/injection, schedule: Q01DX001 (ip), vehicle: carboxymethylcellulose (CMC)) 0 of 6; (dose: 100.0 mg/kg/injection, schedule: Q01DX001 (ip), vehicle: saline) 0 of 6; (dose: 128.0 mg/kg/injection, schedule: Q01DX001 (ip), vehicle: other) 0 of 10; (dose: 128.0 mg/kg/injection, schedule: Q04DX003 (ip), vehicle: other) 0 of 10. Further, the survivor count (dose: 128.0 mg/kg/injection, schedule: Q08DX002 (ip), vehicle: other) is given as 0 of 10; the survivor count (dose: 200.0 mg/kg/injection, schedule: Q01DX001 (ip), vehicle: carboxymethylcellulose (CMC)) is reported as 0 of 6; the survivor count (dose: 200.0 mg/kg/injection, schedule: Q01DX001 (ip), vehicle: saline) is on record as 1 of 6; the survivor count under setting [1] is reported as 0 of 6; the survivor count (dose: 400.0 mg/kg/injection, schedule: Q01DX001 (ip), vehicle: saline) is reported as 0 of 6.

As to `Cc1c(C(=O)NN)no[n+]1[O-]`, the survivor count is, setting by setting: under setting [2], 1 of 3; under setting [3], 0 of 3; under setting [4], 0 of 3.

`[Br][Sb]([Br])([c]1ccccc1)([c]1ccccc1)[c]1ccccc1`: the survivor count is, setting by setting: (dose: 200.0 mg/kg/injection, schedule: Q01DX009 (ip), vehicle: Klucel (hydroxypropylcellulose) (HPC)) 2 of 3; under setting [4], 3 of 3.

Take `NC(=S)N/N=C/c1ccccc1`: the survivor count (dose: 300.0 mg/kg/injection, schedule: Q01DX001 (ip), vehicle: other) is 2 of 6.

Turning to `CC(=O)Oc1c(C(C)(C)C)cc([N+](=O)[O-])c(C)c1[N+](=O)[O-]`, the survivor count reads like this: under setting [2], 0 of 3; under setting [3], 0 of 3; under setting [4], 0 of 3.

Take `CC(=O)Oc1cccc2cc3cc(C)cc(OC(C)=O)c3c(OC(C)=O)c12`: the survivor count is on record as 2 of 6 (dose: 10.0 mg/kg/injection, schedule: Q01DX001 (ip), vehicle: saline); 1 of 6 (dose: 20.0 mg/kg/injection, schedule: Q01DX001 (ip), vehicle: saline); 0 of 6 (dose: 40.0 mg/kg/injection, schedule: Q01DX001 (ip), vehicle: saline); 0 of 6 (dose: 80.0 mg/kg/injection, schedule: Q01DX001 (ip), vehicle: saline).

Turning to `CCSP(N)(=O)c1ccccc1` (configuration not stated), the survivor count runs as follows: (dose: 150.0 mg/kg/injection, schedule: Q01DX001 (ip), vehicle: saline) 0 of 6; (dose: 300.0 mg/kg/injection, schedule: Q01DX001 (ip), vehicle: saline) 0 of 6.

For the compound `CCCCCCP(=O)(O)O`, the survivor count is recorded as 0 of 6 (dose: 200.0 mg/kg/injection, schedule: Q01DX009 (ip), vehicle: saline with Tween-80) and 0 of 6 under setting [5].

For `C=CCNC(=O)C(Br)(CC)CC`, the survivor count (dose: 400.0 mg/kg/injection, schedule: Q01DX009 (ip), vehicle: saline) was 2 of 6 and the survivor count under setting [6] is reported as 6 of 6.

For `CCOCc1nc(NC(C)=O)nc(NC(C)=O)c1-c1ccc(Cl)cc1`, where the note is “dose: 300.0 mg/kg/injection, schedule: Q01DX001 (ip), vehicle: saline with Tween-80”, the survivor count is on record as 0 of 6.

As for `CNC(=O)NNC(=O)CNC(=O)Nc1cccc([N+](=O)[O-])c1`, the survivor count under setting [7] is 1 of 6.

As for `CC(CN)N(C)C` (configuration not stated), under setting [6], the survivor count was 1 of 6.

Regarding `C=CC[S][Pb]([c]1ccccc1)([c]1ccccc1)[c]1ccccc1`, the survivor count (dose: 12.0 mg/kg/injection, schedule: Q01DX009 (ip), vehicle: Klucel (hydroxypropylcellulose) (HPC)) is 4 of 6; the survivor count (dose: 12.5 mg/kg/injection, schedule: Q01DX009 (ip), vehicle: Klucel (hydroxypropylcellulose) (HPC)) is reported as 3 of 3; the survivor count (dose: 25.0 mg/kg/injection, schedule: Q01DX009 (ip), vehicle: Klucel (hydroxypropylcellulose) (HPC)) is on record as 2 of 3; the survivor count under setting [8] is recorded as 0 of 3; the survivor count (dose: 50.0 mg/kg/injection, schedule: Q04DX002 (ip), vehicle: Klucel (hydroxypropylcellulose) (HPC)) is reported as 2 of 3; the survivor count under setting [2] was 0 of 3. The survivor count was 0 of 3 under setting [3] and 0 of 3 under setting [4].

On to `Nn1nnc(-c2ccccc2)c1-c1ccccc1`, for which the survivor count under setting [1] was 4 of 4.

Turning to `COc1cccc2c1C(=O)c1c(O)c3c(c(O)c1C2=O)CC(O)(C(C)=O)CC3OC1CC2NC(=O)OC2C(C)O1` (configuration not stated), the T/C was 148 % of control (dose: 200.0 mg/kg/injection, schedule: Q01DX001 (ip), vehicle: saline with Tween-80) and 132 % of control (dose: 400.0 mg/kg/injection, schedule: Q01DX001 (ip), vehicle: saline with Tween-80).

For the compound `FC(F)(F)C(=Cc1nc2ccccc2s1)C(F)(F)F`, the survivor count under setting [8] is recorded as 0 of 6; the survivor count (dose: 100.0 mg/kg/injection, schedule: Q04DX003 (ip), vehicle: Klucel (hydroxypropylcellulose) (HPC)) was 5 of 6; the survivor count (dose: 200.0 mg/kg/injection, schedule: Q04DX003 (ip), vehicle: Klucel (hydroxypropylcellulose) (HPC)) is recorded as 2 of 6; the survivor count (dose: 400.0 mg/kg/injection, schedule: Q04DX003 (ip), vehicle: Klucel (hydroxypropylcellulose) (HPC)) was 0 of 6.

With `O=C(Nc1ccc([N+](=O)[O-])cc1Cl)OCCCl`, the survivor count is, setting by setting: under setting [7], 3 of 3; under setting [5], 6 of 6; (dose: 400.0 mg/kg/injection, schedule: Q04DX003 (ip), vehicle: saline with Tween-80) 6 of 6.

Source of the values: PubChem BioAssay AID248 (DTP/NCI, 2004).
